Some results were stated once for a whole list of compounds, not compound by compound.
Molecular target: T1, yeast HSP90 (Saccharomyces cerevisiae, UniProt P02829)
T1 construct: made in house; host or cells: E. coli
Test: Malachite Green ATPase assay
Type: biochemical
Conditions: activity range
Excerpt: The intrinsic ATPase activity of HSP90 may be measured using yeast HSP90 as a model system. The assay, based on the use of malachite green for the measurement of inorganic phosphate, was used to test the HSP90 inhibitory activity of some of the compounds of the Examples herein.
Malachite Green ATPase Assay
Chemicals are of the highest purity commercially available and all aqueous solutions are made up in AR water. Because of the need to minimise contamination with inorganic phosphate, precautions should be taken with solutions and apparatus used in the assays. Glassware and pH meters are rinsed with double distilled or deionised water before use and, wherever possible, plastic ware should be used. Gloves are worn for all procedures. • (1) Greiner 384-well (Greiner 781101) or Costar 384-well flat-bottomed polystyrene multiwell plates (VWR). • (2) Assay buffer of (a) 100mM Tris-HCI, pH 7.4, (b) 150mM KCI, (c) 6mM MgCl2. Stored at room temperature. • (3) 0.0812% (w/v) malachite green (M 9636, Sigma Aldrich Ltd., Poole, UK). […]
• 1. […] Measure Absorbance at 620nm using a suitable plate reader (e.g. Victor, Perkin Elmer Life Sciences, Milton Keynes, UK). Under these conditions, the control absorbance is 0.9 to 1.4, and the background is 0.2-0.35 giving a signal to noise ratio of -12. The Z' factor calculated from data obtained using these conditions is between 0.6 and 0.9. […]

Sequences of proteins named here, by UniProt entry; tags and fusion partners are left off.
UniProt P02829, whole entry: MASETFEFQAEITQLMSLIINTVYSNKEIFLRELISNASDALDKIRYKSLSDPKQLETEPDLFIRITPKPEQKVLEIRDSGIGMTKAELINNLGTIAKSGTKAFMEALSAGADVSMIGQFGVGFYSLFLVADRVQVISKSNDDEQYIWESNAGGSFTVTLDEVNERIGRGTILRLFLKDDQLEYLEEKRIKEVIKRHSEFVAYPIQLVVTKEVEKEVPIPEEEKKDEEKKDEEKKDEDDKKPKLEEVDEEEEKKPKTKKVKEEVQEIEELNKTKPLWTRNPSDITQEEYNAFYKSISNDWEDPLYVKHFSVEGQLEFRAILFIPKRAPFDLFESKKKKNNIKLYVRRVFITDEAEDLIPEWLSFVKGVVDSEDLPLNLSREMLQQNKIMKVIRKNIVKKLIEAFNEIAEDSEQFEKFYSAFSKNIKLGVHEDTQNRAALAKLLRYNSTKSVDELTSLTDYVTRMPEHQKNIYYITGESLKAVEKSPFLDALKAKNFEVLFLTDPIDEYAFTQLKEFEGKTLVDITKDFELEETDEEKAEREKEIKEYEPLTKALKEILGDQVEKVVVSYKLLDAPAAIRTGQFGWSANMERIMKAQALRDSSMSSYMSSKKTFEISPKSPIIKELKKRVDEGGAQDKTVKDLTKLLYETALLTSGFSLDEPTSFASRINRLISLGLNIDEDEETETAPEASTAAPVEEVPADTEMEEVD

## 4-Benzyl-6-[4-(4-methoxy-phenyl)-3-methyl-isoxazol-5-yl]-benzene-1,3-diol [Example 22]
  Hsp90 IC50: 'A', 'B' and 'C'

— patent EP1611112B1, “ISOXAZOLE COMPOUNDS AS INHIBITORS OF HEAT SHOCK PROTEINS” (Vernalis (Cambridge) Limited, priority 2003, dated 2004)
